In PubChem BioAssay AID2551 (National Center for Advancing Translational Sciences (NCATS), 2010):
In all, about 310,000 compounds went through this assay and about 17,000 (5.5%) were called active. The inconclusive results got no clear call from the source; some entries with a clear call stand among them for comparison. The call rests on the fitted dose curve; in most records, active means well fitted inhibition curve with a large enough effect; inconclusive means small, poorly fitted or top-dose-only effect, or effect the other way; inactive means no such curve, though single readings can be large or run the other way. Where the call is inconclusive, the potency comes from a doubtful curve fit.

Chains of the proteins cited; added tags and fusions are not shown. Lines headed by an entry give the natural chain unless they say otherwise; changes in a name come on top.
UniProt P51450: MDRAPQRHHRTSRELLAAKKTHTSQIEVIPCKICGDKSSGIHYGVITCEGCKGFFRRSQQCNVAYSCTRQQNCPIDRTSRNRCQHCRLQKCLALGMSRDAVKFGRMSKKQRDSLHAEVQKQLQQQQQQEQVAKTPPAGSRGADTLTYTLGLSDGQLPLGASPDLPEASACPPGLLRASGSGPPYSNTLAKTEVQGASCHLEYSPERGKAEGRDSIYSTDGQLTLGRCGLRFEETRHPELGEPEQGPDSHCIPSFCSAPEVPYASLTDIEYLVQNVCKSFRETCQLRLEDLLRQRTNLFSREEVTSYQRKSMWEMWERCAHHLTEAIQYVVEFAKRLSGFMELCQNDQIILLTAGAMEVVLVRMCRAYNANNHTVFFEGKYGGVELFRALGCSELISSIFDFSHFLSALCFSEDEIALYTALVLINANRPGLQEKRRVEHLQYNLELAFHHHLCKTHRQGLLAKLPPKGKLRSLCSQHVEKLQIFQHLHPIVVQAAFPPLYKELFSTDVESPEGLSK

biological target: Nuclear receptor ROR-gamma (Mus musculus) (UniProt P51450); assay: qHTS for inhibitors of ROR gamma transcriptional activity; details: Drosophila S2 Gal4-RORgamma UAS-luciferase reporter, 20 h; series mostly up to 53.6 µM; further: nearly all actives have a fitted effect of over 60% in size
Outline: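 Drosophila Schneider cells stably carrying a metallothionein-driven Gal4 DBD–ROR gamma fusion and a UAS-Photinus luciferase reporter were exposed to compound for 1 hr, then induced with copper sulfate (700 uM final) for 20 hr at ambient temperature before luminescence reading.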
Potency means the concentration at half of the fitted maximal effect.

Potency, inconclusive:
COc1ccc(N=C2SC(C(=O)Nc3ccc4c(c3)OCO4)CC(=O)N2C)cc1 (stereo unspecified) 15.8 µM [activator, single point], O=C(NCc1cccnc1)C1CC(c2ccccc2Cl)=NO1 (stereo unspecified) 6.31 µM [activator, single point], CC1(C)Cc2nc3sc4c(=O)n(Cc5ccccc5)cnc4c3cc2CS1 3.98 µM [activator, partial curve], CCOC(=O)c1c(C)[nH]c(C)c1C(=O)CSc1nc2ccccc2c(=O)n1-c1ccc(CC)cc1 12.6 µM [activator, partial curve], CCN1C(=O)c2cccc3c(NC(=O)c4ccccc4)ccc1c23 15.8 µM [activator, single point], O=C(C1CCCN(S(=O)(=O)c2ccc(Br)s2)C1)N1CCCCCC1 (stereo unspecified) 20 µM [inhibitor, single point], COC(=O)CSc1nnc(SCc2ccc(Cl)cc2)s1 3.16 µM [activator, single point], CC1CCN(C(=O)c2ccc(S(=O)(=O)Cc3cc(F)ccc3F)c([N+](=O)[O-])c2)CC1 22.4 µM [inhibitor, single point], COC(=O)c1ccc(C(NC(=O)OCc2ccccc2)/C(C)=C/[C@@H](C)C(=O)NCc2cccnc2)cc1 (stereo partly specified) 22.4 µM [activator, single point], CCN(CC)c1ccc(S(=O)(=O)N2CCOCC2)cc1NC(=O)CSc1n[nH]c(N)n1 112 µM [inhibitor, partial curve, poor fit], CCOc1cccc(SCc2noc(C(=O)NC(C)C)c2C(=O)O)c1 20 µM [inhibitor, single point], Cc1ccc2nc(SC(C)C(=O)NCc3ccc4c(c3)OCO4)[nH]c2c1 (stereo unspecified) 5.62 µM [activator, partial curve, poor fit], CCOc1cc(C(=O)N=c2sccn2C)ccc1OC(F)F 15.8 µM [activator, single point], CC(C)OC(=O)CCC(=O)Nc1nc2ccccc2s1 1.12 µM [activator, full curve, poor fit], COc1ccc(CN2C(=O)NC3(CCOc4ccccc43)C2=O)cc1F (stereo unspecified) 15.8 µM [activator, single point], O=C(N/N=C/c1ccc[nH]1)c1cccnc1 22.4 µM [inhibitor, single point], O=C(NC(NC(=S)N1CCOCC1)C(Cl)(Cl)Cl)c1ccc(Cl)cc1 (stereo unspecified) 25.1 µM [activator, single point], N#Cc1ccccc1NC(=O)C1CC(=O)N(c2ccc3c4c(cccc24)CC3)C1 (stereo unspecified) 12.6 µM [activator, partial curve, poor fit], C=C(C)CNC(=O)c1ccc(OC2CCN(S(=O)(=O)N(C)C)CC2)cc1 11.2 µM [activator, single point], Cc1ccc(-c2nc3sc4c(c3c(=O)n2N)CCCC4)cc1 0.112 µM [activator, partial curve, poor fit], CC1(C)CC(=O)C(C=NC2CC(C)(C)NC(C)(C)C2)=C(O)C1 10 µM [inhibitor, partial curve], O=C(NCc1csc2ccc(Cl)cc12)Nc1ccccc1 12.6 µM [activator, single point], CCC/C(C)=N/NC(=O)c1ccccc1O 11.2 µM [inhibitor, partial curve, poor fit], COc1ccc(C(=O)N2CCN(CCNC(=O)C(=O)Nc3ccc(Br)cc3)CC2)cc1 17.8 µM [activator, single point], C/C(=N\NS(=O)(=O)c1ccccc1)c1ccc2c(c1)OCO2 35.5 µM [inhibitor, single point], COc1ccc(/C=N/NC(=O)c2nnn(-c3nonc3N)c2CN(C)c2ccccc2)cc1 28.2 µM [inhibitor, single point], CCn1c(=O)c(C(=O)Nc2ccc(C)cc2)c(O)c2ccccc21 14.1 µM [inhibitor, single point], COc1ccc(CCNC(=O)C2CCCN2C(=O)Nc2cccc(C(C)=O)c2)cc1OC (stereo unspecified) 35.5 µM [inhibitor, single point], CC(C)COc1ccc(-c2nnc(-c3ccco3)o2)cc1 25.1 µM [inhibitor, single point], COc1ccc(C2CC(O)(c3ccccc3)Oc3c(C)ccc(C)c32)cc1 (stereo unspecified) 25.1 µM [activator, single point], CC1CCc2c(sc3nc4n(c(=O)c23)CCS4)C1 (stereo unspecified) 3.16 µM [activator, full curve], Cc1ccc2c(C(=O)CN3CCOCC3)c(C)[nH]c2c1 12.6 µM [inhibitor, single point], CCOc1ccc(Cc2c(Cl)nc(N)nc2Cl)cc1 1.26 µM [activator, partial curve], C/C=C(/C)C(=O)O[C@@H]1c2c(ccc3ccc(=O)oc23)O[C@@H]1C(C)(C)OC(=O)/C(C)=C\C 35.5 µM [activator, single point], Cn1c(Cc2ccccc2)nnc1SCC(=O)NC1CCCCC1 3.16 µM [inhibitor, partial curve], Cc1cc(CNC(=O)COc2ccc([N+](=O)[O-])cc2)c2ccccc2n1 14.1 µM [activator, partial curve], CN(C(=O)c1ccco1)c1nc(CC(=O)Nc2ccccc2)cs1 31.6 µM [activator, single point], Cc1nc(C)n(CC(O)COc2ccc3cc(Br)ccc3c2)n1 (stereo unspecified) 35.5 µM [inhibitor, single point], Cc1cc(CNC(=O)c2cccnc2Cl)c2ccccc2n1 22.4 µM [activator, single point], Cc1ccc(NC(=S)N2CCCC(c3ccccc3)=N2)cc1 10 µM [inhibitor, partial curve], CC1(C)CC2CC(C)(CN2c2ncnc3ccc(Br)cc23)C1 (stereo unspecified) 5.62 µM [inhibitor, single point]

Potency, active:
Cc1cc(Nc2ccccc2)n(-c2nc3ccccc3[nH]2)n1 1.58 µM, Cc1cccc2sc(NNC(=O)C3COc4ccccc4O3)nc12 (stereo unspecified) 6.31 µM, O=C(NC(=S)Nc1ccccc1N1CCCC1)c1ccc(F)cc1 1.58 µM, COc1ccc(Cc2nnc(N/N=C/c3ccc(O)cc3)[nH]c2=O)cc1OC 2.24 µM, CC(C)(C)c1cc(C(=O)N/N=C/c2ccccc2O)n(-c2ccccc2)n1 0.631 µM, CC1CCN(c2ccc(-c3cccs3)nn2)CC1 2 µM, COc1cc2c(cc1OC)CN(CCC(=O)c1ccc(Br)cc1)CC2 11.2 µM, CCOC(=O)N1CCN(C(=O)CCCn2c(=S)[nH]c3ccc(Br)cc3c2=O)CC1 12.6 µM, Cc1cc(C(=O)N/N=C/c2cc(Br)ccc2OC(=O)c2ccc(Br)cc2)n[nH]1 8.91 µM, COc1cccc(/C=N\NC(C)=O)c1OC/C=C/c1ccccc1 8.91 µM, CC(C)c1ccc(-c2cc(C(=O)NN3CCN(C)CC3)c3ccccc3n2)cc1 11.2 µM

Potency, inactive:
COc1ccc(N2CCN(S(=O)(=O)c3ccc(OC)c(C(=O)N4CCOCC4)c3)CC2)cc1, Cc1cccc(NC(=O)c2cc([N+](=O)[O-])ccc2N2CCCCC2)n1, CCOC(=O)/C=C(\C)Sc1cc(=O)oc2ccccc12, O=C(CCS(=O)(=O)Cc1ccccc1F)NCCc1ccc(Cl)cc1, CCOC(=O)c1c(S(=O)(=O)N(C)Cc2ccccc2)c(C)n(C)c1C, O=S(=O)(NCCC1=CCCCC1)c1ccc(F)cc1, COCCn1c(SCC(=O)N(C(C)C)C(C)C)nnc1-c1cc2ccccc2cc1O, CC[C@@]1(O)CC2CN(CCc3c([nH]c4ccccc34)[C@](C(=O)OC)(c3cc4c(cc3OC)N(C)C3[C@@](O)(C(=O)OC)C(OC(C)=O)[C@]5(CC)C=CCN6CC[C@@]43C65)C2)C1 (stereo partly specified), O=C1Nc2cc(C(=O)NCCCN3CCCC3)ccc2S/C1=C\c1ccccc1, Cc1cc(C(=O)Nc2sc(C)c(-c3ccc(F)cc3)c2C(N)=O)no1, OCCN1CCN(c2nc(N3CCCCC3)nc(N3CCCCC3)n2)CC1, CC(=O)c1cccc(NC(=O)Cn2cnc(S(=O)(=O)N3CCOCC3)c2)c1, COC(=O)c1ccc(-c2cc(CC3(C(=O)OC)CCN(C(=O)OC(C)(C)C)CC3)on2)cc1, CCOc1ccccc1CN1CCNC(=O)C1CC(=O)NC1CCCCC1 (stereo unspecified), Cc1ccc(N2C(=O)C(Cl)=C(N3CCCCCC3)C2=O)c(C)c1, O=S(=O)(Cc1ccccc1)NCC1CCCN(Cc2cccc3nonc23)C1 (stereo unspecified), CNC(=O)c1cc2cccc(OC)c2oc1=O, COC(=O)/C(C#N)=C/c1c(-c2ccccc2)nc2n1CCS2, COc1ccc(C2=NS(=O)(=O)N(C)C(C(=O)N3CCCCC3)=C2)cc1
